Results: PMC6929609
These are yes or no findings as the source states them, for the method shown. In cells and extracts the contact can be indirect. A result given as binding can be weak or reduced; the word gives no strength. Sequences can lack the tags named with a protein.

Biological target: T1, Fc-sCD146 (human) (UniProt P43121)
T1 sequence: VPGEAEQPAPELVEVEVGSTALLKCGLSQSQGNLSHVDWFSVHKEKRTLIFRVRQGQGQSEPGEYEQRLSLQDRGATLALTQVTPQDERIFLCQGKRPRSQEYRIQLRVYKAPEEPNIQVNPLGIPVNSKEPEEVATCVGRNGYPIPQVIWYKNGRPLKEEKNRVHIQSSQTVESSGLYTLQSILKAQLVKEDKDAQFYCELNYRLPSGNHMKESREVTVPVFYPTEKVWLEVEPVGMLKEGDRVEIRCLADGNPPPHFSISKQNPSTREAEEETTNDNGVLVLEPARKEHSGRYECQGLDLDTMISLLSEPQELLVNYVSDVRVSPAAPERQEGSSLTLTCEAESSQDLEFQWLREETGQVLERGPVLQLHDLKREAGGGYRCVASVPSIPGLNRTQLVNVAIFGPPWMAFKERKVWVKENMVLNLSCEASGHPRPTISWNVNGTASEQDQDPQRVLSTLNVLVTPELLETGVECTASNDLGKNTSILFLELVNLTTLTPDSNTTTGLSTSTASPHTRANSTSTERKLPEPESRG
Experiment: co-IP; precleared hCMEC/D3 lysate (1 mg total protein; 20 mmol/L Tris-HCl pH 7.4, 150 mmol/L NaCl, 1 mmol/L CaCl2, 2 mmol/L MnCl2, 1.5% Triton X-100) incubated 4 h at 4 °C with human Fc or Fc-sCD146, then Protein G-plus agarose beads overnight at 4 °C; blots with anti-integrin αv, β1 or anti-Fc; only the target purified

## integrin αvβ1 (human (endogenous in hCMEC/D3)) (receptor)
  binding: binds
